The record followed here is article PMC10761881.

Chains of the proteins cited; added tags and fusions are not shown.
UniProt Q9W2S2: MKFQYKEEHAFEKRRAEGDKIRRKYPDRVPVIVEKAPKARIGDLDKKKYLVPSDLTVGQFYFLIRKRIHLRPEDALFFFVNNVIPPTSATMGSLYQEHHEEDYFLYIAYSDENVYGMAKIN

Assay [1] addresses Atg8a (epitope-tagged) (Drosophila) (UniProt Q9W2S2). The assay can be described thus: co-IP; Drosophila S2R+ cells (S2 cells in the legend of Fig. 4D) transfected with epitope-tagged proteins; treatments in some panels: dsRNA against Slmap, Fgop2 or Cka, co-expression of Tak1 or Tak1 S176A, 5Z-7-Oxozeaenol (2 μM, 3 h), LPS (10 μg/mL, 2 h, after 20-Hydroxyecdysone 1 μM, 48 h).
The next assay concerns the target T1, GST-Fgop2 (Drosophila) (UniProt Q9VM65).
T1 sequence: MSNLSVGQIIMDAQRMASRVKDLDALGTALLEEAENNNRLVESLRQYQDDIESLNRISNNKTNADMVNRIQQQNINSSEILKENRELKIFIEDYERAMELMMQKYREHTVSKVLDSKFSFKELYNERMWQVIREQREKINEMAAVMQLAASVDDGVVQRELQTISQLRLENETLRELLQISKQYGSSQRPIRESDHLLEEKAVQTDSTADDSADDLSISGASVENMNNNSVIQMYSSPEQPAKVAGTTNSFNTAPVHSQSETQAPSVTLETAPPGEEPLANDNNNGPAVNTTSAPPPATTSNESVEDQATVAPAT
The assay can be described thus: pull-down; bacterially purified GST fusion proteins as bait; lysates of S2R+ cells transfected with HA-tagged Tao-1; only the target purified.

These are yes or no findings as the source states them, for the method shown. Binding seen in cells or lysates may run through a third protein. Some results given as binding are weak or reduced against the parent protein; the word gives no strength. Tags and fused reporters may be left off the sequences shown.

B1: Tak1 (Transforming growth factor-β-activated kinase 1), epitope-tagged (enzyme, UniProt Q9V3Q6 1-678)
chain: MATASLDALQAAYVDFSEITLREKVGHGSYGVVCKAVWRDKLVAVKEFFASAEQKDIEKEVKQLSRVKHPNIIALHGISSYQQATYLIMEFAEGGSLHNFLHGKVKPAYSLAHAMSWARQCAEGLAYLHAMTPKPLIHRDVKPLNLLLTNKGRNLKICDFGTVADKSTMMTNNRGSAAWMAPEVFEGSKYTEKCDIFSWAIVLWEVLSRKQPFKGIDNAYTIQWKIYKGERPPLLTTCPKRIEDLMTACWKTVPEDRPSMQYIVGVMHEIVKDYTGADKALEYTFVNQQIVTKESDGTVAAQPDSLSSQEGELSPSSTQLTPTTAANANVNAIAISKTTTSSMTENTSSTSSDITPTNSGQLDNNPLFYMVTNRWDAIPEEESNESRNDSFNLTSSAEATQRLETIRNGMILMACKPMEQLTLDVEANGFDLSPSESSSSSTNAKSDGRERLTVTDTKPVMMTTDLSNNNGGIHAHSNGLLSHANGWQARDEELQEQEHEQEIVNSLDVDVDPDEDENDGTEQSLAEILDPELQPEPPIPNDAESQLIYRDHRHMAKEYLSVDTNLYYAQDFKDKLIVQMDRTEREQKQELLRKMKDKEGLQSLYNNLQQQYASRQLAAGHHPQPHPHPHPNQLQHPHSHPPMHFLQDEGCGLLPGSVCGGSESVEEGWVVIPPHHNA
In the case of B1, the binding entry in assay [1] is reported as “binds”.

B2: HA-Tao-1 (protein, UniProt Q0KHQ5 1-1039)
chain: MPSARPGSLKDPEIADLFNKHDPEKIFEDLREIGHGSFGAVYYARCNLTREIVAIKKMSYTGKQSQEKWQDILKEIRFLRQLNHPNTIEYKGCYLRESTAWLVMEYCVGSASDIIEVHKKPLHEDEIAAICLGVLSGLSYLHSLGRIHRDIKAGNILLTDNGVVKLADFGSAAIKCPANSFVGTPYWMAPEVILAMDEGQYDGKVDVWSLGITCIELAERKPPYFNMNAMSALYHIAQNESPTLPKNDWSDAFCSFVELCLKKMPAERPSSAKLLTHAYVTRPRSDTVLLELIARTKSAVRELDNLNYRKMKKILMVDTCETESAVGDTDDQQDDHAGGDSSKSNSITSEHSIHSVGVSAASSQSSSSNSIPAAAQNHHHIAAHHHQQAASAAVAAAMHHHHHPHQQPPPSWPSGQQGQPVPPGAVSRNSSRHRNRPPLPNIMHSMNNNVTPTNSASVVPAPAPAPVLPPPISVLPHLSAMGHVGGGGTGTGGSGGGSPASGGPLADRIQPVQPRYLTTPAAQAAVYAASSASSQQAISNAVNDHGPNNFATIRTTSIVTKQQKEHMQEEMHEQMSGYKRMRREHQAHLVKLEEKCKVDMEAHKTALDKEYDTLLHNFTRDLDRLETKHQQDVERRAKQTSAAEKKLHKEITLKQENDRKVYDLNRKKEYKANKERWKRELSMDESTPKRQRDLTLQSQKDNLKQHEAQEEQRMLQAQKQYIELEMRKFKRKRMIMQHEHEDQQLRDELGKKEQQLQQAHAMLLKHHEKTQELEYRQQKSVHQLREEQINKQHDTELHNQKDYMDRIKKELVRKHAVELRQQPKSLKQKELQIRKQFRETCKTQTKQYKRYKAQVLQTTPKEQQKEVIKQLKEEKHRKLTLLGEQYEQSIADMFQSQSYKLDESQVIECQRTHEQLEYELEMLTAYQNKNKKQAQEQRDRERRELENRVSVRRGLLENKMDAELQQFNQERAERLRMKHEKHTKELEAFDNESIALGFSTLSLIEVSREAYADEEGSLSGSMISLAHSNSSTSFPAGSL
B2: in the assay with GST-Fgop2 (Drosophila), the binding result is “no binding”.
